According to article PMC2585060:
Residue numbers refer to the chain shown, from its start. These are yes or no findings as the source states them, for the method shown. In cells and extracts the contact can be indirect. Some results given as binding are weak or reduced against the parent protein; the word gives no strength. Sequences can lack the tags named with a protein.

Experiments:
[1] = target: T1, GST-tagged β3 integrin cytoplasmic tail Y747A (UniProt O54890); experiment: pull-down; 5 µg recombinant GST-β integrin tails incubated overnight with 500 µg IEC lysate (50 mM Tris pH 7.4, 150 mM NaCl, 1 mM EDTA, 1% Triton-X-100), precipitated with glutathione beads, western blot for Kindlin-1 and GST; also done with keratinocyte lysates; only the target purified
T1 sequence: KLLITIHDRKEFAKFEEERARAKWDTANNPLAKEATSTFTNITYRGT

[2] = target: T2, GST-tagged β3 integrin cytoplasmic tail Y759A (UniProt O54890); experiment: as above
T2 sequence: T1 sequence with A32Y, Y44A

B1: Kindlin-1 (protein, UniProt P59113 1-677)
chain: MLSSGDLTSASWELVVRVDHANGEQQTEITLRVSGDLHIGGVMLKLVEQMNIAQDWSDYALWWEQKRCWLLKTHWTLDKCGVQADANLLFTPQHKMLRLRLPNAKTVRLRVSFSAVVFKAVADICKVLNIRRPEELSLLKPSSDYCKKKKKKEKNSKEPVIEDILNLESSSTSSGSPVSPGLYSKTMTPTYDPINGTPALSTMTWFGDSPLTEQNCSVLAFSQPPPSPDVLADMFQPRSLVDKAKMNAGWLDSSRSLMEQSIQEDEQLQLRFKYYTFFDLNPKYDAVRINQLYEQARWAVLLEEIDCTEEEMLIFAALQYHISKLSQCAEIQDFATKSEVDEVEAALSSLEVTLEGGKADNTLEDITDIPKLADYLKLFRPKKLMLKACKQYWFVFKDTSIAYFKNKELEQGEPIEKLNLRGCEIVPDVNVSGRKFGIKLLIPVADGMNEVYLRCDHEDQYARWMAACILASKGKTMADSSYQPEVISILSFLKMKNRNSSPLVASSLENMDMNPECLVSPCCAKKHKSKQLAARILEAHHNVAQMPLVEAKLQFIQAWQSLPEFGLTYYLVRFKGSKKDDILGVAYNRLIRIDAVTGIPVTTWRFANMKQWNVNWEIRQVAIEFDQNVSIAFTCLSADCKIVHEYIGGYIFLSTRSKDQNETLDEDLFHKLTGGQD
- binding [1]: binds
- binding [2]: no binding
